These are yes or no findings as the source states them, for the method shown. Binding seen in cells or lysates may run through a third protein. Some binding calls cover weakened binding; strength is not graded here. For some assays here: Sequences can lack the tags named with a protein.
How the values were obtained:
[1] = biological target: T1, ECM1 fused to a fluorescent protein (GFP or RFP) for FRET-FLIM (human) (UniProt Q16610); assay: FRET or BRET; FRET-FLIM; GFP-fused donor and RFP-fused acceptor transiently co-expressed in HEY and SKOV3 cells; excitation 489 nm, GFP lifetime measured
T1 sequence: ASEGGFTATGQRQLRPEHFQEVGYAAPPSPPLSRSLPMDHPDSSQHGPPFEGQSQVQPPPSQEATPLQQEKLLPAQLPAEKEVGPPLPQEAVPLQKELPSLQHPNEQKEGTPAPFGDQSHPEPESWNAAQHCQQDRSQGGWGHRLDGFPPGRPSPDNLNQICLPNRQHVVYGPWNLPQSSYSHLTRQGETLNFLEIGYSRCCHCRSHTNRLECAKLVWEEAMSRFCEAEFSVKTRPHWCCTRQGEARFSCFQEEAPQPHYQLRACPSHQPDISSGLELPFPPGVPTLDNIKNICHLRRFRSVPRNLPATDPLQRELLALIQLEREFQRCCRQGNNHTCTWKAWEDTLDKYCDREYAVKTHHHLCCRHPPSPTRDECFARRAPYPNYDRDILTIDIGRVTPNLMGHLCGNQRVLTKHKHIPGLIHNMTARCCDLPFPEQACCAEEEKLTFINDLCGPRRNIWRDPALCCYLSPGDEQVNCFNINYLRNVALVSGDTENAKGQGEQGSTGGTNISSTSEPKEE

Chains of the proteins cited; added tags and fusions are not shown. Residues count along the entry.
UniProt P35968, residues 20-1356: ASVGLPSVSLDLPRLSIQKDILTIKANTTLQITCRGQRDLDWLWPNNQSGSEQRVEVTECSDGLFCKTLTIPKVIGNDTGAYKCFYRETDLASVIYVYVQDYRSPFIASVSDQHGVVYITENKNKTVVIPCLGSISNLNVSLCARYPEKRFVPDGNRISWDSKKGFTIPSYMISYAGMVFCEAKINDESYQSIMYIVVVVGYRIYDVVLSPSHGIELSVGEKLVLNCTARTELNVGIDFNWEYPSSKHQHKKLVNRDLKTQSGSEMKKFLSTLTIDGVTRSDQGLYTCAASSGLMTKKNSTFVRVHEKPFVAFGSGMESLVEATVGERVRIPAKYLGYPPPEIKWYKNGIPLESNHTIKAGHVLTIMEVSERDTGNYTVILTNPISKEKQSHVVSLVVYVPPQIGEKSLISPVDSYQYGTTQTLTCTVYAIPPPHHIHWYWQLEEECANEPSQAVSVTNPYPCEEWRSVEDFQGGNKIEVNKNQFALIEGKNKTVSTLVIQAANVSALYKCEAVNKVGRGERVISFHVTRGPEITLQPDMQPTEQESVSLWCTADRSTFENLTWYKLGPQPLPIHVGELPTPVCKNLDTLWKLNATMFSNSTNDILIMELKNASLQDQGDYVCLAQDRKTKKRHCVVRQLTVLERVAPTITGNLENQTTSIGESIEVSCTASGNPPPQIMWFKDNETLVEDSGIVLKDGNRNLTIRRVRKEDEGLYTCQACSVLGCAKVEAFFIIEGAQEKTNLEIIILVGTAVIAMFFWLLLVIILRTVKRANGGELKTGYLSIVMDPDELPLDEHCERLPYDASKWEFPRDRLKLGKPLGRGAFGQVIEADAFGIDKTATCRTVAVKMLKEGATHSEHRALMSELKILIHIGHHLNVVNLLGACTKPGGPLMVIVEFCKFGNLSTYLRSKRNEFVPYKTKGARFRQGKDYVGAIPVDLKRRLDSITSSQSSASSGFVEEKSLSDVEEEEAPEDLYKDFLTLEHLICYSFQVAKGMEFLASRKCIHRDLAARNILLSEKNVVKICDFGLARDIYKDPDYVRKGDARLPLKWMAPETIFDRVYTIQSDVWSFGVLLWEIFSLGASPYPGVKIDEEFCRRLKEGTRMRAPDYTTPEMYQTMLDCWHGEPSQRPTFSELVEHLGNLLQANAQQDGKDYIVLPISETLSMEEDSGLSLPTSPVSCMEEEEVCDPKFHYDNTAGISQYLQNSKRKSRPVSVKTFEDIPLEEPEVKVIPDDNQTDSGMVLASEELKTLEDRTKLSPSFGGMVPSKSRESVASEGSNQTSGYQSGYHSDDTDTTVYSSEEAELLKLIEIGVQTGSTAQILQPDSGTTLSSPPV

[2] = biological target: T2, extracellular matrix protein 1 (ECM1) (human) (UniProt Q16610); assay: co-IP; RIPA cell lysate; protein A/G beads with 25 ug IgG/ECM1/VEGFR2 antibody; lysate incubated 2 h at room temperature; SDS-PAGE and blot
T2 sequence: T1 sequence

Q: Which binding [1] does the source give for “VEGFR2 fused to a fluorescent protein (GFP or RFP) for FRET-FLIM (from UniProt P35968 20-1356) (receptor)” here?
A: binds

Q: With “vascular endothelial growth factor receptor 2 (VEGFR2) (from UniProt P35968 20-1356)” as the substance, how does the binding [2] read?
A: binds

Source: article PMC11077377
